One test concerns the target T1, GST-KIF23 (human) (UniProt Q02241).
T1 sequence: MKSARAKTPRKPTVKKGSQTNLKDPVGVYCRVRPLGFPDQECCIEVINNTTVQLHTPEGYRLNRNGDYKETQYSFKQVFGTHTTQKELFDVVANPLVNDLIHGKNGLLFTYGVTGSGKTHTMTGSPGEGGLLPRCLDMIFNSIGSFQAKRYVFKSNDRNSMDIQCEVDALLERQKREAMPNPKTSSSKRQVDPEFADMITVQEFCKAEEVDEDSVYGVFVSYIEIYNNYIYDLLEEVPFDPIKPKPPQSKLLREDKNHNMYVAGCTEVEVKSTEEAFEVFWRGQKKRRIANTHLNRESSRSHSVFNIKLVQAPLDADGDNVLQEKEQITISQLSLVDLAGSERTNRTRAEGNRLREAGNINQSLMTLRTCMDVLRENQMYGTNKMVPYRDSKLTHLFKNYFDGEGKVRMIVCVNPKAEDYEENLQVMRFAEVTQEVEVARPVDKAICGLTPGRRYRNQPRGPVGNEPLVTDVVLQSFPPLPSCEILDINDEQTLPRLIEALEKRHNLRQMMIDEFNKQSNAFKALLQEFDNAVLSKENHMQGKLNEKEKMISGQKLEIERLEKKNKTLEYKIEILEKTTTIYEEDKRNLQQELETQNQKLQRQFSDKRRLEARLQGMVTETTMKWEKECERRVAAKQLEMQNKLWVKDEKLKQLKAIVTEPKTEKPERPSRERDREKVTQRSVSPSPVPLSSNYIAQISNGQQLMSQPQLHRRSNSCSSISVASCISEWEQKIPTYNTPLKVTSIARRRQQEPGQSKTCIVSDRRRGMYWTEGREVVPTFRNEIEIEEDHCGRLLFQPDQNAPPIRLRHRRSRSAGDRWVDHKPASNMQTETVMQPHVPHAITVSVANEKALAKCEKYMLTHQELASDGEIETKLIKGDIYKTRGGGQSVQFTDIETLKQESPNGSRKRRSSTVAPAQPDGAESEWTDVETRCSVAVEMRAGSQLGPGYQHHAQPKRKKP
In words: pull-down; Pierce GST Protein Interaction Pull-Down Kit; GST-tagged bait from E. coli immobilised on the spin column, prey protein added, Western blot for KIF23 and Amer1; only the target purified. In general terms: In western blotting, separated proteins are transferred to a membrane and probed.

The target in test [1] is T2, FLAG-tagged Amer1-FL (full-length Amer1), in 293T cells (UniProt Q5JTC6).
T2 sequence: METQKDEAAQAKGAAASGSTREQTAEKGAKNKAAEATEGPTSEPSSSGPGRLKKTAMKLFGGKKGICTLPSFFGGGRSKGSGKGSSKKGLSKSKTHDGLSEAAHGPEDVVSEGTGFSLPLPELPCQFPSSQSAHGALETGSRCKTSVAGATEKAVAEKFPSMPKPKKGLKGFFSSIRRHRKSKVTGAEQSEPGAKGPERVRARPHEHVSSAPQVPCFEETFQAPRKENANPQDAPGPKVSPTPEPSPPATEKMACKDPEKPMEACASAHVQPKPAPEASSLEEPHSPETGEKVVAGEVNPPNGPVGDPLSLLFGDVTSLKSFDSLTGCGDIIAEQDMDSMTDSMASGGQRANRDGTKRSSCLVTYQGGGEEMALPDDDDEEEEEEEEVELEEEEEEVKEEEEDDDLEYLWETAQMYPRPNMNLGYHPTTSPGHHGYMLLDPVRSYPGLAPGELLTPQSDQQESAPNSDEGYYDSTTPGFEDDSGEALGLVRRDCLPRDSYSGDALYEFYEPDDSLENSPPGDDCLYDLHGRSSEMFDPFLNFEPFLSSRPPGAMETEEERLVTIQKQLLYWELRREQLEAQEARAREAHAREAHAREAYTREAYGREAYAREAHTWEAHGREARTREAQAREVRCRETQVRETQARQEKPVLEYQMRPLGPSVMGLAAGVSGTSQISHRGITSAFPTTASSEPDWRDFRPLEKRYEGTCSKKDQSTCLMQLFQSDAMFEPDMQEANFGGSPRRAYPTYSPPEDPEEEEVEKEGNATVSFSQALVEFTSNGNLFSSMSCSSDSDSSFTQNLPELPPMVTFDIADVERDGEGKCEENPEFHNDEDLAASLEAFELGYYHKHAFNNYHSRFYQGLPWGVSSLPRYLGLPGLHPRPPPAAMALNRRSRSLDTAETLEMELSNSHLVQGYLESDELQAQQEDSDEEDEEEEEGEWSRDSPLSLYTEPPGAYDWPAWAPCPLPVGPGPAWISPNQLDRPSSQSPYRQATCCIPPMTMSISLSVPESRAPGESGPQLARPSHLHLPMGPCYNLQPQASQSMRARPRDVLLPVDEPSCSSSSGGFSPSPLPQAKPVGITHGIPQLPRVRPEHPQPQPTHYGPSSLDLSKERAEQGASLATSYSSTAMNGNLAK
As to the kind of experiment: co-IP; FLAG-tagged Amer1 constructs and eGFP-tagged KIF23 transiently transfected in 293T cells; Co-IP buffer, antibody overnight at 4°C, protein A/G-agarose, Western blot.

No constants are given. Whether binding was seen depends on the method and setting. Binding seen in cells or lysates may run through a third protein. Binding calls can cover weak binding; strength is not graded here. Sequences can lack the tags named with a protein.

Take “Amer1-ΔA (lacking the APC-binding domains, ABD) (domain or fragment)”: the binding result with GST-KIF23 (human) is listed as “binds”. On the same count and under the same terms, the result for “Amer1-ΔM (lacking the N-terminal membrane localization domains, MLD) (domain or fragment)” reads “binds”. Regarding “eGFP-tagged KIF23 (pEGFP-C1-MKLP1) (human)”, the binding entry in test [1] is given as “binds”.
